These are literature values, as cited in patent US8846083B2, “Method for the diffusion of molecules which are insoluble in an aqueous medium and composition using said method” (priority 2004, dated 2014).

For the compound `CC(C)Cc1ccc(C(C)C(=O)O)cc1` (stereo not shown) [ibuprofen], the solubility in water entry is on record as “virtually insoluble in water”.
